Results taken from patent US20060026702A1, “Phosphoinositide 3-kinase mediated inhibition of GPCRs” (DUKE UNIVERSITY, priority 2002, published 2006).
These are yes or no findings as the source states them, for the method shown. Some entries that bind do so weakly or less than the wild type.

Protein sequences, listed by entry. Tags and fused reporters are not part of them. Lines headed by an entry give the natural chain unless they say otherwise; changes in a name come on top. Residues count along the entry.
UniProt Q99MK8: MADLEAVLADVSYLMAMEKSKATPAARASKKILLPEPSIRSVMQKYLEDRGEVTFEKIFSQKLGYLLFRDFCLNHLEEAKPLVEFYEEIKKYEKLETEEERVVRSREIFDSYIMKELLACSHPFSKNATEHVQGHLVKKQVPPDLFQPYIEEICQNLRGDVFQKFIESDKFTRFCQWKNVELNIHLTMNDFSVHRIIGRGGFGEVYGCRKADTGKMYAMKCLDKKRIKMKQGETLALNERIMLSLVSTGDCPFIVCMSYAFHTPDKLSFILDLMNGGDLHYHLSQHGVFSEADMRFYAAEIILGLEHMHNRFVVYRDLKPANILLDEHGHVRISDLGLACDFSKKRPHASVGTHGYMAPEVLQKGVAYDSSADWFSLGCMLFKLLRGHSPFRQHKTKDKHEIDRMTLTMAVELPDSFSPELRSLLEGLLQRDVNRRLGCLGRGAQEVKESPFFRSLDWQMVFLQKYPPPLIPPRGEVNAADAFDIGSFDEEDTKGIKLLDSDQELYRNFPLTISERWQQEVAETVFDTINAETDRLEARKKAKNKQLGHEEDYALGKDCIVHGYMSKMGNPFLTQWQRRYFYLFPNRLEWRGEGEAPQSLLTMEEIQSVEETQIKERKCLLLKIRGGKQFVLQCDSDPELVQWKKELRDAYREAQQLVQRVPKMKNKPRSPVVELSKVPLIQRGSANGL
UniProt P42336: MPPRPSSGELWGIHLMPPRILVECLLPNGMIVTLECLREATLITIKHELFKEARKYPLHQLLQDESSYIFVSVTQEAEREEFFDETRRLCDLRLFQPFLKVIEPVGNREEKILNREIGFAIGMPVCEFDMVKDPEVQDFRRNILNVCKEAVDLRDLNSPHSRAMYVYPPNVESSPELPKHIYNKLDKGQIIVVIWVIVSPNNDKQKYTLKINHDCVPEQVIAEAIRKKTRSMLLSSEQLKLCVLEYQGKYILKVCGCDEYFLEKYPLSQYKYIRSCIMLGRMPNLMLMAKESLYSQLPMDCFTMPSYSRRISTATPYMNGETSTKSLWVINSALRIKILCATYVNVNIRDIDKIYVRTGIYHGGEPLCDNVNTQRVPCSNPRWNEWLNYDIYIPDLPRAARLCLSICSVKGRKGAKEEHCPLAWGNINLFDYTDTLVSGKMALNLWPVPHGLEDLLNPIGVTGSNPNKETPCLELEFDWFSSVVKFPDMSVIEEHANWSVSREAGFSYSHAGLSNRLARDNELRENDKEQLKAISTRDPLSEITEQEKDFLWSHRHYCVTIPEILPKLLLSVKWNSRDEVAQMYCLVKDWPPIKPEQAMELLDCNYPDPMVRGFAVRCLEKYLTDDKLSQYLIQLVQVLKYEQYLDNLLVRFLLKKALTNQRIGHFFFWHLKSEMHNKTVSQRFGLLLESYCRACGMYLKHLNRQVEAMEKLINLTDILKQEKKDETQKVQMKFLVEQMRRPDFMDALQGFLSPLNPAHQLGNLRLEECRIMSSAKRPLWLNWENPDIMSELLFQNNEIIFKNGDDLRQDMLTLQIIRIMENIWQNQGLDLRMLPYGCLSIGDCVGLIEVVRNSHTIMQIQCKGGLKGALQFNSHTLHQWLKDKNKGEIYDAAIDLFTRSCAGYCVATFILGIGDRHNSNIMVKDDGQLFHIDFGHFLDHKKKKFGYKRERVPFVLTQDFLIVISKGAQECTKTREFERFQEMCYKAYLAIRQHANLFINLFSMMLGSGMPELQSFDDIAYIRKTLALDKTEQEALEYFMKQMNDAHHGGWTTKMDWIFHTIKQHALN
UniProt Q9JHG7: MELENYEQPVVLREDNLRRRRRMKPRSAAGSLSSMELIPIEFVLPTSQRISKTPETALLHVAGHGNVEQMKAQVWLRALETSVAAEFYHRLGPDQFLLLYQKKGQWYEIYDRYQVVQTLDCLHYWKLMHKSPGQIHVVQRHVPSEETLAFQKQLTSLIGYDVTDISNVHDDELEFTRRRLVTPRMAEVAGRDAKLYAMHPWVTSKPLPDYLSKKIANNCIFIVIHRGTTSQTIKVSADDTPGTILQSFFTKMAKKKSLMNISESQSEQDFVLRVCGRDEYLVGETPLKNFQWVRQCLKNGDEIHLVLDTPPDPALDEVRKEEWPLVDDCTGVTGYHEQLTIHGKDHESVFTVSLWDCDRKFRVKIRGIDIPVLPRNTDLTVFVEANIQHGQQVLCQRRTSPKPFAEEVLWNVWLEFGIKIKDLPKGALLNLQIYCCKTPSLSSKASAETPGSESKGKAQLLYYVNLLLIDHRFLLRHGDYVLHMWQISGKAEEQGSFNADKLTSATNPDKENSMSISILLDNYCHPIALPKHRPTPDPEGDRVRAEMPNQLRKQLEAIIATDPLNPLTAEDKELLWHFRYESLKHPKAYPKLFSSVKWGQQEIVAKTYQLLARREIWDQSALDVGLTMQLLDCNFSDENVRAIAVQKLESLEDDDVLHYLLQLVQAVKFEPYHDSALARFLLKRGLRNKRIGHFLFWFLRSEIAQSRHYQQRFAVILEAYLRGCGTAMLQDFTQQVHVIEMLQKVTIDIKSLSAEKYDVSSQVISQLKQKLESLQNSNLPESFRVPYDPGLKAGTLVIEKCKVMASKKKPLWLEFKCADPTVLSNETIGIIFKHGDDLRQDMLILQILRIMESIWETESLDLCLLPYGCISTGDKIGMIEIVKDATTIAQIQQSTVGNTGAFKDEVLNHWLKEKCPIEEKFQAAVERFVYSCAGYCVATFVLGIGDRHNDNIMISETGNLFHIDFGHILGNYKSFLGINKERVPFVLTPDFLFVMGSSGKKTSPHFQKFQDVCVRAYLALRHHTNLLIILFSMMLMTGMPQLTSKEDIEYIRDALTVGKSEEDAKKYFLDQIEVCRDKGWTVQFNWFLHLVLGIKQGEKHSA
UniProt P21146, residues 495-689: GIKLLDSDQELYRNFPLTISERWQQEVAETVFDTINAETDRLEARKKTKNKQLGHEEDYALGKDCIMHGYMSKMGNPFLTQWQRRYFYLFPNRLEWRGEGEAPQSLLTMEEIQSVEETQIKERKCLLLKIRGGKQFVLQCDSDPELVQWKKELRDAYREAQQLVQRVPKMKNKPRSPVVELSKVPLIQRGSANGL

Experiments:
[1] = biological target: endogenous βARK1 of mouse heart (mouse) (UniProt Q99MK8); experiment: βARK1 immunoprecipitation from mouse myocardial extracts, PI3K activity and PI3Kγ immunoblot
[2] = biological target: endogenous βARK1 of mouse heart (mouse) (UniProt Q99MK8); experiment: βARK1 immunoprecipitation from mouse myocardial extracts, immunoblot
[3] = biological target: Myc-PI3Kα (Homo sapiens (Human)) (UniProt P42336); experiment: PI3K immunoprecipitation (anti-myc), immunoblot with a βARK1 C-terminus polyclonal antibody
[4] = biological target: Myc-PI3Kα (Homo sapiens (Human)) (UniProt P42336); experiment: immunoprecipitation with anti-myc, immunoblot with a βARK1 C-terminus polyclonal antibody, transfected NIH-3T3 cells

| binding [1] | binding [2] | binding [3] | binding [4] | Substance |
| --- | --- | --- | --- | --- |
| binds | binds |  |  | endogenous PI3Kγ of mouse heart (from UniProt Q9JHG7 1-1102) (enzyme) |
|  |  | binds | binds | carboxyl terminus of βARK1 (βARKct) (from UniProt P21146 495-689) |
